Assay in all cases: co-IP; Flag-tagged protein captured overnight on ANTI-FLAG M2 Affinity beads from 293T whole cell lysates (150 mM NaCl, 0.1% NP-40, treated with benzonase); beads washed three times with lysis buffer; Western blot
In general terms: A western blot detects proteins with antibodies after separation by electrophoresis.

Protein sequences, listed by entry. Tags and fused reporters are not part of them. Lines headed by an entry give the natural chain unless they say otherwise; changes in a name come on top.
UniProt P28340: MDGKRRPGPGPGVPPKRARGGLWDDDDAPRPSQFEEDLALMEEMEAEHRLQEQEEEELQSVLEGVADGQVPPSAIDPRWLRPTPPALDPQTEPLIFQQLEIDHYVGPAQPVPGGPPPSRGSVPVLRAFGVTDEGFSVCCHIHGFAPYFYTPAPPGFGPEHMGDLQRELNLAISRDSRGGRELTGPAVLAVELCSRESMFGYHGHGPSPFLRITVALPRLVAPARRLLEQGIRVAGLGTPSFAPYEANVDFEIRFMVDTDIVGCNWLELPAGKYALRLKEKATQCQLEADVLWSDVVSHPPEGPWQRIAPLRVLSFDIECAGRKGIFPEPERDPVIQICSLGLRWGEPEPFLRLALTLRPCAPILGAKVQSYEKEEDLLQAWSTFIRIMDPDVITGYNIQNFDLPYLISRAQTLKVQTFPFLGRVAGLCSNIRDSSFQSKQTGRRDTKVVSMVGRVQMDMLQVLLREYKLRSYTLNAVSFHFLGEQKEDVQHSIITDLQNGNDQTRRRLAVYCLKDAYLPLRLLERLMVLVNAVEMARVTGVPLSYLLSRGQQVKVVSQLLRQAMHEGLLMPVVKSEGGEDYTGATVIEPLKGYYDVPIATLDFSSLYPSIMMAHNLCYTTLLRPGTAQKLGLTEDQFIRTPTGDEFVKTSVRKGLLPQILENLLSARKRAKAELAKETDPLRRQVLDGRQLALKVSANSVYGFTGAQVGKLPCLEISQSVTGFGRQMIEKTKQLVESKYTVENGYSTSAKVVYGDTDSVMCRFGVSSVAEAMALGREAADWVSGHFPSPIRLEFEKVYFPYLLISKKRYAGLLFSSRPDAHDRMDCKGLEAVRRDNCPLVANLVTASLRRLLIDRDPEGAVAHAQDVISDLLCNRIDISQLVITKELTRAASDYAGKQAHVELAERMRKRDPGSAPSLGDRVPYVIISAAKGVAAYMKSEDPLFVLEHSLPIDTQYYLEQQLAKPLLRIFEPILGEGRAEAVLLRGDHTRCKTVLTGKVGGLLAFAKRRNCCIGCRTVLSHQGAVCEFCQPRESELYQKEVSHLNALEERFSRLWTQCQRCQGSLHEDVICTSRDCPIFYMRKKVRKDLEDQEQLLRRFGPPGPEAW

Assay [1] concerns the target T1, Flag-tagged DDX11 (wild type) (human) (UniProt Q96FC9).
T1 sequence: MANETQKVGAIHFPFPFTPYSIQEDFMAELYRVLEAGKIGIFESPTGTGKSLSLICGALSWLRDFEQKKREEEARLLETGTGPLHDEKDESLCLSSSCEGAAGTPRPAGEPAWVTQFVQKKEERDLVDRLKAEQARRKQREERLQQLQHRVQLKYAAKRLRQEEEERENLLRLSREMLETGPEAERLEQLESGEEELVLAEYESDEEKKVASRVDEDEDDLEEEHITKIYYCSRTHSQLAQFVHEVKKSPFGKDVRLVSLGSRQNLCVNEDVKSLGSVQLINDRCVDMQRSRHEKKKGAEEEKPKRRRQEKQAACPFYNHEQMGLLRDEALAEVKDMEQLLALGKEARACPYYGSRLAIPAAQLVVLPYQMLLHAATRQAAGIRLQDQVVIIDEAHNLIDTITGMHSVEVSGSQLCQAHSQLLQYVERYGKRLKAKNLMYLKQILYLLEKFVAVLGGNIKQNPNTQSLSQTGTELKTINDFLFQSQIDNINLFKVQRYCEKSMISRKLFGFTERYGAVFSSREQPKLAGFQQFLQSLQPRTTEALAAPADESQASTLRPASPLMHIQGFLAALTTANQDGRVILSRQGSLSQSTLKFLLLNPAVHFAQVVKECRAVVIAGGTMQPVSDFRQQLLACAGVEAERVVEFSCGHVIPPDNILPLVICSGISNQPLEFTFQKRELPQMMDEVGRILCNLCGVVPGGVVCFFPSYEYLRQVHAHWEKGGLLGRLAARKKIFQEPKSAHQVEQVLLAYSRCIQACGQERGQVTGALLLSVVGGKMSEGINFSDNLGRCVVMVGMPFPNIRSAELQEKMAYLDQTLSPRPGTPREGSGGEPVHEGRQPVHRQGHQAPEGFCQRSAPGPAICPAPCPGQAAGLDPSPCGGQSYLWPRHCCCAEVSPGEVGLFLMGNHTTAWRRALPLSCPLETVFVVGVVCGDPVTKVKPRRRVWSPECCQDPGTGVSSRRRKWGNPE

Assay [2] concerns the target T2, Flag-tagged WDHD1 (human) (UniProt O75717).
T2 sequence: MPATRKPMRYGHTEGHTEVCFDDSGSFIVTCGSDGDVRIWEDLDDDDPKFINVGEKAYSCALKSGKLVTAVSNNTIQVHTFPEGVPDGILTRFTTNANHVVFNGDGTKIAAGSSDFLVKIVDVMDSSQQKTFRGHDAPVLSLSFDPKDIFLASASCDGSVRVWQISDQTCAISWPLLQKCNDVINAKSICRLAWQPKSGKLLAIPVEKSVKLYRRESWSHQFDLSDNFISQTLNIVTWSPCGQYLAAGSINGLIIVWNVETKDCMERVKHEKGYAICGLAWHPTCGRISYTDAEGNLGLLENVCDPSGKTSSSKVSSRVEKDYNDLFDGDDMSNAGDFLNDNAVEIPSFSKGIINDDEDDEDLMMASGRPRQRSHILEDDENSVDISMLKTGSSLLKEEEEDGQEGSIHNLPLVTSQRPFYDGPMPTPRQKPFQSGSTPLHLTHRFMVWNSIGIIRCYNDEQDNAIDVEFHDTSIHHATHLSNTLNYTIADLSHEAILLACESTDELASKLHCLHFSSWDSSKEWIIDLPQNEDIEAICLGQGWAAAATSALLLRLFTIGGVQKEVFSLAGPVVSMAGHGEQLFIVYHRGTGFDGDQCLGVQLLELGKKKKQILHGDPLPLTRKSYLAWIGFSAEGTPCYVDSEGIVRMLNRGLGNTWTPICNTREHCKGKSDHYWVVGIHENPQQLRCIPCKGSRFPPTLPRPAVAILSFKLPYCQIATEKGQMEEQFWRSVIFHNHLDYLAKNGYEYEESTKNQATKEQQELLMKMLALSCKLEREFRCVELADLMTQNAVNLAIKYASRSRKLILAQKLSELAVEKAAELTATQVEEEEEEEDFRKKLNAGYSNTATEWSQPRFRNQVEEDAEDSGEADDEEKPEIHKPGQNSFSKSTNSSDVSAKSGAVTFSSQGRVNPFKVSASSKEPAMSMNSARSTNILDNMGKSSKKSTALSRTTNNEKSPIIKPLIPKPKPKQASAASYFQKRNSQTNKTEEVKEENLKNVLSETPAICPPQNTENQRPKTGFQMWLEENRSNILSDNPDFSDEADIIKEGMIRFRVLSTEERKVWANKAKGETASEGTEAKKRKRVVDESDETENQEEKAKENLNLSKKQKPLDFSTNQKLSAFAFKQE

Assay [3] has as its target Flag-tagged POLD1 (UniProt P28340).

Experimental findings from article PMC7032568 are described below.

No constants are given. Whether binding was seen depends on the method and setting. Binding seen in cells or lysates may run through a third protein. Some results given as binding are weak or reduced against the parent protein; the word gives no strength. Sequences can lack the tags named with a protein.

Take “POLD1 (endogenous), the catalytic subunit of Pol δ (from UniProt P28340 1-1107)”: in assay [1], the binding entry is given as “binds”.

B1: WDHD1 (endogenous) (protein, UniProt O75717 1-1129)
chain: T2 sequence
Regarding B1, the binding entry in assay [1] is recorded as “binds”.

B2: untagged DDX11 (protein, UniProt Q96FC9 1-970)
chain: T1 sequence
As to B2, the binding entry in assay [2] and in assay [3] was “binds” each time.
